{
  "sequences": {"note": "Protein sequences, listed by entry. Tags and fused reporters are not part of them. Lines headed by an entry give the natural chain unless they say otherwise; changes in a name come on top. Chains listed by the source or under a name are the forms on record and can include a tag or linker. Residues count along the entry.", "UniProt P40763": "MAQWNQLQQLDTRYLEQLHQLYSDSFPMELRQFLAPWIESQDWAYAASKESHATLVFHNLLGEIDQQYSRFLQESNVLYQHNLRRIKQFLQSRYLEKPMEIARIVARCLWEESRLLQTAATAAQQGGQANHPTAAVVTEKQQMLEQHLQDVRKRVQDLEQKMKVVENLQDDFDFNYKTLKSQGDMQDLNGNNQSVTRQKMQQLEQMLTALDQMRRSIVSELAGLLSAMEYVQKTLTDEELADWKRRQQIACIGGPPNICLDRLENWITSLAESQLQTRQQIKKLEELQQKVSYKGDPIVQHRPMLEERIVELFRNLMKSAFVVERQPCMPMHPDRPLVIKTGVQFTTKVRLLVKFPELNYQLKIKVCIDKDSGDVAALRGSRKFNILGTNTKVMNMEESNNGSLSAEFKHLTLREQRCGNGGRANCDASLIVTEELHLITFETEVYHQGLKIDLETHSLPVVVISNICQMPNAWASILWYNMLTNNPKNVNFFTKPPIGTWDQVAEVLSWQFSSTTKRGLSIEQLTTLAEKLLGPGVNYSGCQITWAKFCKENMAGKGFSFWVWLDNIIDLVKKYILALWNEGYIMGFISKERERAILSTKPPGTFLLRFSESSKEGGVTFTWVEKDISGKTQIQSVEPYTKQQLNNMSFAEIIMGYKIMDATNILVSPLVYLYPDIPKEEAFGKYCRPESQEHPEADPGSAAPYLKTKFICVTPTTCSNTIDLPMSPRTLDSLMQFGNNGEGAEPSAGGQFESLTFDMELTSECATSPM", "STAT3 deletion mutant with residues 581–770 fused to the Flag tag": "residues 581-770 of P40763", "UniProt P42227": "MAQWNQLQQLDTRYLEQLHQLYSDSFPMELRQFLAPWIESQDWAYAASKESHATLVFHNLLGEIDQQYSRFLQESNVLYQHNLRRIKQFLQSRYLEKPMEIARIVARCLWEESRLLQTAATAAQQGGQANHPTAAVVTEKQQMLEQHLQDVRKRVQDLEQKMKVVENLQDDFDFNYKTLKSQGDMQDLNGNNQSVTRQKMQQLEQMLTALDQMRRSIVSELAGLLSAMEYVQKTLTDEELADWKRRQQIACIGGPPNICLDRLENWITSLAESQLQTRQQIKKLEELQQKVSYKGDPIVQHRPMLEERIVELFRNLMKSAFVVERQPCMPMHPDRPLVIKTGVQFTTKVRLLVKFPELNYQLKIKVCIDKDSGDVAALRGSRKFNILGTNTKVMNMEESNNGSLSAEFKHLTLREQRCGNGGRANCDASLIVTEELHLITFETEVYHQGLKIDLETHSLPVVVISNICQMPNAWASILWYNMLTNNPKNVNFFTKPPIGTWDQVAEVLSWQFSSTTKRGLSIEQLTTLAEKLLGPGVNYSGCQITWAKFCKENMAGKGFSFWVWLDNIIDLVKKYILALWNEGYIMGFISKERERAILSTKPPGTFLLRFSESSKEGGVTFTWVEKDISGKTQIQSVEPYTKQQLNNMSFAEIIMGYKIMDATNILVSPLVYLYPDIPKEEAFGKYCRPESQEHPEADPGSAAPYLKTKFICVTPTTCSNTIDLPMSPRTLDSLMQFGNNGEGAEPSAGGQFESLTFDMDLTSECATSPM"},
  "source": "paper PMC5489593",
  "molecules": {"B1": {"name": "sorcin-GFP fusion (pEGFP-sorcin, full-length human sorcin) (protein, UniProt P30626-1 1-198)", "chain": "MAYPGHPGAGGGYYPGGYGGAPGGPAFPGQTQDPLYGYFAAVAGQDGQIDADELQRCLTQSGIAGGYKPFNLETCRLMVSMLDRDMSGTMGFNEFKELWAVLNGWRQHFISFDTDRSGTVDPQELQKALTTMGFRLSPQAVNSIAKRYSTNGKITFDDYIACCVKLRALTDSFRRRDTAQQGVVNFPYDDFIQCVMSV"}, "B2": {"name": "endogenous sorcin of HEK293T cells (protein, UniProt P30626 1-198)", "chain": "B1 chain"}, "B3": {"name": "endogenous sorcin of HepG2 cells (protein, UniProt P30626 1-198)", "chain": "B1 chain"}, "B4": {"name": "endogenous sorcin of mouse hepatocytes (protein, UniProt Q6P069 1-198)", "chain": "B1 chain with T114S, A140T, I144V, N151S, T178S, A179G, P187S, S197T"}},
  "key": {"[1]": {"biological_target": "T1, sorcin-GFP fusion (pEGFP-sorcin, full-length human sorcin) (human) (UniProt P30626)", "T1 sequence": "B1 chain", "experiment": "co-IP; HEK293T co-transfected with GFP-tagged full-length or truncated sorcin and full-length flag-STAT3; IP with anti-GFP monoclonal antibody, blot with anti-flag"}, "[2]": {"biological_target": "STAT3 deletion mutant with residues 581–770 fused to the Flag tag (human) (UniProt P40763)", "experiment": "co-IP; HEK293T co-transfected with flag-STAT3 (full length or truncated) and pEGFP-sorcin; lysis in 1% Triton-100, 20 mM Tris-Cl, 5 mM EDTA, 137 mM NaCl; IP with anti-flag antibody, blot with anti-GFP"}, "[3]": {"biological_target": "flag-STAT3 (pRK5-flag-STAT3, full-length human STAT3) (human) (UniProt P40763)", "experiment": "co-IP; HEK293T co-transfected with flag-STAT3 (full length or truncated) and pEGFP-sorcin; lysis in 1% Triton-100, 20 mM Tris-Cl, 5 mM EDTA, 137 mM NaCl; IP with anti-flag antibody, blot with anti-GFP"}, "[4]": {"biological_target": "flag-STAT3 (pRK5-flag-STAT3, full-length human STAT3) (human) (UniProt P40763)", "experiment": "co-IP; HEK293T transfected with pRK5-flag-STAT3; IP with anti-FLAG antibody, blot of endogenous sorcin with anti-sorcin antibody"}, "[5]": {"biological_target": "endogenous STAT3 of HepG2 cells (human (endogenous in HepG2)) (UniProt P40763)", "experiment": "cross-linking + co-IP; HepG2 cells treated with 1 mmol/L DSS at room temperature for 30 min, lysed in Nonidet-40 buffer; IP with anti-STAT3 antibody, blot with anti-sorcin; both proteins endogenous"}, "[6]": {"biological_target": "endogenous STAT3 of mouse hepatocytes (mouse (endogenous in hepatocytes)) (UniProt P42227)", "experiment": "co-IP; extracts of hepatocytes from mice with or without ConA stimulation; IP with STAT3 antibody or control IgG, blot with anti-sorcin; both proteins endogenous"}},
  "note": "Numbering of substitutions follows the chain as printed. No constants are given. Whether binding was seen depends on the method and setting. Binding seen in cells or lysates may run through a third protein. Some entries that bind do so weakly or less than the wild type. For part of these data: Where a sequence is shown, tags or fusion partners need not be part of it.",
  "data": [
    {"molecule": "flag-STAT3 (pRK5-flag-STAT3, full-length human STAT3) (from UniProt P40763-1 1-770)", "values": [
      {"measurement": "binding", "setting": "[1]", "value": "binds"}
    ]},
    {"molecule": "B1", "values": [
      {"measurement": "binding", "setting": "[2]", "value": "binds"},
      {"measurement": "binding", "setting": "[3]", "value": "binds"}
    ]},
    {"molecule": "B2", "values": [
      {"measurement": "binding", "setting": "[4]", "value": "binds"}
    ]},
    {"molecule": "B3", "values": [
      {"measurement": "binding", "setting": "[5]", "value": "binds"}
    ]},
    {"molecule": "B4", "values": [
      {"measurement": "binding", "setting": "[6]", "value": "binds"}
    ]}
  ]
}
